The text below walks through data of the supplement of paper PMC12542422.

Where a name gives a salt, the structure may show the parent alone. ± gives the standard deviation of the averaged measurements. The list shows a part of the results. These are raw signals, not scaled to a control.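 Across three biological replicates, HeLa cells were imaged for ribosome assembly using ENP1 staining (export block present or absent) or inducible tagged ribosomal protein reporters. Machine learning classified each cell's signal localization relative to DMSO controls. Hits exceeded the DMSO false-positive mean by five standard deviations and were then visually confirmed.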

In this assay the test system is HeLa RPS2-YFP reporter. As to the kind of experiment: fraction of reporter-positive cells with nuclear (nucleolar or nucleolar/nucleoplasmic) RPS2-YFP (MainHitrate); higher = more cells with nucleolar/nuclear readout signal (for ENP1 -LMB: less RNAPI inhibition; for +LMB ENP1 and RP reporters: stronger nuclear/nucleolar retention, i.e. ribosome biogenesis defect). The following applies: concentration: 1 µM; treatment time: 6 h.
For the compound `CN1CCC(=C2c3ccccc3CC(=O)c3sccc32)CC1` [Ketotifen fumarate (Zaditor)], the “fraction of reporter-positive cells with nuclear” value (“fraction” for short) was determined as 0.118 ± 0.081. With `Nc1nc(N)c2nc(-c3ccccc3)c(N)nc2n1` [triamterene] the figure was 0.111 ± 0.098.

`CCOC(=O)C1=C(C)NC(C)=C(C(=O)OCC)C1c1ccccc1/C=C/C(=O)OC(C)(C)C` [Lacidipine (Lacipil, Motens)]: the “fraction” value worked out at 0.141 ± 0.075. In the case of `C[C@](N)(Cc1ccc(O)c(O)c1)C(=O)O` [Methyldopa (Aldomet)], the “fraction” value came to 0.141 ± 0.097.

On to `CN(C)CCC(c1ccccc1)c1ccccn1` (centres undefined) [Pheniramine Maleate], for which the “fraction” value turned out to be 0.112 ± 0.1.

Turning to `CC#CCn1c(N2CCC[C@@H](N)C2)nc2c1c(=O)n(Cc1nc(C)c3ccccc3n1)c(=O)n2C` [Linagliptin (BI-1356)], the “fraction” value came to 0.119 ± 0.099.

Take `NS(=O)(=O)c1cc2c(cc1Cl)N=CNS2(=O)=O` [Chlorothiazide]: the “fraction” value was determined as 0.118 ± 0.078. For `NCC(=O)CCC(=O)O` [5-Aminolevulinic acid hydrochloride] the value was 0.109 ± 0.054. `CN(C)CCCN1c2ccccc2CCc2ccc(Cl)cc21` [Clomipramine hydrochloride (Anafranil)]: the “fraction” value amounted to 0.132 ± 0.13.
